Assay results published in the supplement of paper PMC10735217.
Where a name gives a salt, the structure may show the parent alone. The list shows a part of the results. This data set is noisy: repeats of one test often differ as much as different tests do.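 Human kidney-derived cells stably carry a construct in which eight TEAD-binding elements drive luciferase, measured by luminescence in a drug-repurposing library screen. A hit is any compound whose signal exceeds the plate mean by more than five robust Z scores.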

Test system: HEK293A TEAD-LUC reporter
Experiment: TEAD-luciferase reporter activity (YAP activation), robust Z score vs plate; higher = stronger YAP/TEAD activation
Settings: 24 h

SMILES	TEAD-luciferase reporter activity (compound concentration: 200 nM)	TEAD-luciferase reporter activity (compound concentration: 2 uM)	TEAD-luciferase reporter activity (compound concentration: 10 uM)
O=c1[nH]ncc(NCC(O)COc2cccc3ccccc23)c1Cl (centres undefined)	inactive: -0.474	inactive: 0.629	inactive: -0.342
CCCN1CCCC12Cc1ccccc1CN(C(=O)CCNC(C)=O)C2 (centres undefined)	inactive: 0.797		inactive: 1.62
CSc1nc(C)c(Cc2ccccc2)c(=O)[nH]1	inactive: -0.139	inactive: -0.738	inactive: 0.859
CN1CCC2(O)Oc3c(ccc4ccccc34)CC2C1 (centres undefined)	inactive: -1.97	inactive: 0.675	inactive: 0.359
CN1CCC(=C2c3ccccc3CCc3cccnc32)CC1 [Azatadine maleate]	inactive: 0.368	inactive: 0.608	inactive: 4.63
CCCCCCCOC(=O)Cc1c(C)n(C(=O)c2ccc(Cl)cc2)c2ccc(OC)cc12 [Indomethacin heptyl ester]	inactive: -0.109	inactive: 0.312	inactive: 1.49
CCCc1c(OCCCOc2ccc(C(=O)NC)c(OC)c2CC2CC2)ccc2c1OC(CCC(=O)O)CC2 (centres undefined)	inactive: 1.06	inactive: -1.55	inactive: 0.113
CCCC(=O)N1CCCN(c2nc(N)c3cc(OC)c(OC)cc3n2)CC1 [bunazosin ER]	inactive: 1.23	inactive: -2.15	inactive: 0.494
C#CCN(C)Cc1ccccc1 [Pargyline hydrochloride]	inactive: -0.272	inactive: 3.31	inactive: 0.733
CCCC(CCC)C(=O)NCC(=O)NCCCCCCNC(=O)n1cc(F)c(=O)[nH]c1=O	inactive: 0.0794	inactive: -0.0633	inactive: 0.806
Cc1cc(F)c(C(=O)Nc2cccc(-c3nncn3C(C)C)n2)cc1-n1cnc(C2CC2)c1	inactive: -0.118	inactive: -0.917	inactive: 1.83
COc1ccc(C(=O)N2CCOc3ccccc32)cc1Cl	inactive: 0.854	inactive: -0.544	inactive: -1.23
CC(C)CNC(=N)Nc1cccc(NC(=O)Nc2ccc(Cl)cc2)c1	inactive: -0.797	inactive: -0.0306	inactive: 0.602
COCCN(C)Cc1ccc2nc3sc(C(=O)N(C)C4CCCCC4)cn3c2c1	inactive: 0.108	inactive: 1.58	inactive: 1.81
CC(C)N(CCC(c1ccccc1)c1ccccc1)C(C)C	inactive: -0.514	inactive: 2.27	inactive: 0.752
CC(C)(C)[C@H](NC(=O)[C@H](CC1CCCC1)CN(O)C=O)C(=O)N1CCN(Cc2ccc3c(c2)OCO3)CC1	inactive: 1.62	inactive: -0.32	inactive: -0.245
CCOC(=O)OC(C)OC1=C(C(=O)Nc2ccccn2)N(C)S(=O)(=O)c2ccccc21 (centres undefined) [ampiroxicam]		inactive: 0.524	
CCOC(=O)OC(C)OC1=C(C(=O)Nc2ccccn2)N(C)S(=O)(=O)c2ccccc21 (centres undefined)	inactive: -0.0627		inactive: 0.701
CCCCCCCCCCCCCCCCOCCCOP(=O)(O)CO[C@H](C)Cn1cnc2c(N)ncnc21	inactive: -0.79	inactive: -0.644	inactive: -0.451
CS(=O)(=O)c1ccc(C(CC2CCCC2)C(=O)Nc2nccs2)cc1 (centres undefined)	inactive: 0.106	inactive: -0.644	inactive: -0.521

SMILES	TEAD-luciferase reporter activity (compound concentration: 200 nM)	TEAD-luciferase reporter activity (compound concentration: 2 uM)	TEAD-luciferase reporter activity (compound concentration: 10 uM)
Cc1cc(Nc2nc(N[C@@H](C)c3ncc(F)cn3)ncc2Cl)n[nH]1	inactive: -0.981	inactive: -0.642	inactive: 1.53
O=C(Nc1ccc2cn[nH]c2c1)c1cc2[nH]c(Nc3ccccc3C(F)(F)F)nc2cc1N1CCNCC1	inactive: 0.187	inactive: -1.48	inactive: -1.31
COc1ccccc1C(=O)N1C2CCCC1CC(=O)C2	inactive: -1.31		inactive: -0.423
C[C@H](NP(=O)(OC[C@H]1O[C@@H](n2ccc(N)nc2=O)C(F)(F)[C@@H]1O)Oc1ccccc1)C(=O)OCc1ccccc1 (some centres undefined)	inactive: -1.43	inactive: -1.35	inactive: -1.4
COc1cc2nc(N3CCCN(C(=O)N4CCOCC4)CC3)cc(N)c2c(-c2ccc(F)cc2)c1OC	inactive: 0.317	inactive: -1.57	inactive: 1.07
O=c1c2ccccc2ncn1-c1nnn[nH]1	inactive: 0.206	inactive: -1.68	inactive: 1.24
CC1CCC(CN)(CN)CC1	inactive: -0.0838	inactive: 1.21	inactive: -1.15
Cn1c(-c2ccccc2C(F)(F)F)nnc1C12CCC(c3nc(-c4ccc(F)cc4)no3)(CC1)CC2	inactive: -0.558	inactive: -1.4	inactive: 0.598
CC(C)[C@](C#N)(CCCN(C)CCc1ccccc1)c1ccccc1	inactive: -0.0342	inactive: -0.348	inactive: 0.00371
COc1ccc(CCNCCCNC(=O)c2ccc([N+](=O)[O-])cc2)cc1OC	inactive: -0.185	inactive: 0.324	inactive: -1.03
O=C(OCC(COC(=O)c1cccnc1)(COC(=O)c1cccnc1)COC(=O)c1cccnc1)c1cccnc1 [niceritrol]	inactive: 0.645	inactive: -1.51	inactive: -0.433
CC(=O)OC/C=C(C)/C=C/C=C(C)/C=C/C1=C(C)CCCC1(C)C [Vitamin A (acetate)]	inactive: -0.808		inactive: -1.23
CC(=O)OC/C=C(C)/C=C/C=C(C)/C=C/C1=C(C)CCCC1(C)C [Retinol acetate]		inactive: -0.523	
Cn1nnc2ccc([C@H](c3ccc(Cl)cc3)n3cncn3)cc21	inactive: -0.492	inactive: -0.718	inactive: 1.97
CC(C)c1cc(C(C)C)c(-c2csc(N(CCN(C)C)Cc3cccnc3)n2)c(C(C)C)c1 [Foropafant]	inactive: 0.228	inactive: -0.547	inactive: -0.577
COC(=O)[C@@H](N)CS	inactive: 0.208	inactive: -1.45	inactive: -1.31
CCOc1noc2cc(OCCC3CCN(c4ccc(C)nn4)CC3)ccc12 [Vapendavir]	inactive: -0.653	inactive: 0.449	inactive: 3
CCC1(C)OC(=O)N(C)C1=O (centres undefined)	inactive: 1.85	inactive: -2.2	inactive: -0.989
COC(=O)C1=C(C)NC(C)=C(C(=O)OCC(C)C)C1c1ccccc1[N+](=O)[O-] (centres undefined) [nisoldipine]	inactive: 0.726	inactive: -2.04	inactive: 0.573
COc1ccc(C(=O)N2Cc3ccccc3CC23CCCN(C(=O)CN)C3)cc1 (centres undefined)	inactive: -1.1		inactive: -3.03

SMILES	TEAD-luciferase reporter activity (compound concentration: 200 nM)	TEAD-luciferase reporter activity (compound concentration: 2 uM)	TEAD-luciferase reporter activity (compound concentration: 10 uM)
COC1=CC(=O)C[C@@H](C)[C@]12Oc1c(Cl)c(OC)cc(OC)c1C2=O [griseofulvin]		inactive: 2.01	
COC1=CC(=O)C[C@@H](C)[C@]12Oc1c(Cl)c(OC)cc(OC)c1C2=O [Griseofulvin126-07-8]	inactive: -0.782		inactive: 3.82
O=C1CCC2CCC(=O)N12 [rolziracetam]	inactive: -1.37	inactive: -2.5	inactive: 0.514
Nc1ccccc1NC(=O)c1ccc(CNC(=O)OCc2cccnc2)cc1 [entinostat]		active: 18.6	
Nc1ccccc1NC(=O)c1ccc(CNC(=O)OCc2cccnc2)cc1 [Entinostat (MS-275, SNDX-275)]	inactive: 0.477		active: 6.22
CSC[C@H]1O[C@@H](n2cnc3c(N)ncnc32)[C@H](O)[C@@H]1O	inactive: -0.813	inactive: -1.59	inactive: 0.926
CCCCCCCCC(=O)O	inactive: 4.69	inactive: -1.23	inactive: -0.21
COC(=O)c1c(C(=O)OC)c(-c2ccc(OC)c(OC)c2)c2c(OC)c(OC)c(OC)cc2c1O	active: 6.04	inactive: -0.0305	inactive: 0.621
NCC(O)CC(=O)O (centres undefined)	inactive: -1.58	inactive: -0.188	inactive: -0.735
c1cnc(NCc2ccc(CNc3ncccn3)cc2)nc1	inactive: -1.28	inactive: 0.2	inactive: 1.65
O=C(O)CCCCCCc1c(O)nc(O)n1CCC(O)C1CCCCC1 (centres undefined)	inactive: 0.341	inactive: -0.812	inactive: 0.511
O=C(NCc1ccsc1)c1cnc(Nc2cccc(Cl)c2)nc1C(F)(F)F	inactive: -1.15	inactive: -0.396	inactive: -1.06
O=[Si](O)O[Si](O)(O)O[Si](=O)O [Magnesium trisilicate hydrate]	inactive: 0.152	inactive: 0.167	inactive: 1.59
O=C(O)c1cc(=O)c2c(OCC(O)COc3cccc4oc(C(=O)O)cc(=O)c34)cccc2o1 [Disodium cromoglycate]	inactive: -1.74		inactive: -1.6
O=C(O)c1cc(=O)c2c(OCC(O)COc3cccc4oc(C(=O)O)cc(=O)c34)cccc2o1 [cromoglicic acid]		inactive: -1.12	
Clc1ccc(/C(=C/c2ccc(Cl)cc2Cl)Cn2ccnc2)cc1	inactive: -1.32	inactive: -0.0279	inactive: -1.2
CN1C(=O)c2ccncc2/C(=C\CCCCC(=O)O)c2ccccc21	inactive: -0.918	inactive: 0.222	inactive: 2.75
O=C([O-])CCCCCCCCC(=O)[O-] [disodium sebacate]	inactive: -0.117	inactive: -0.0746	inactive: -0.193
CCC(CC)(CC(=O)Nc1cccc(/C=C/c2nc(C3CCC3)cs2)c1)C(=O)O [Cinalukast]	inactive: -1	inactive: 0.344	inactive: 0.35

Some of the entries so far, as labelled records:
CSc1nc(C)c(Cc2ccccc2)c(=O)[nH]1
  TEAD-luciferase reporter activity (compound concentration: 200 nM): inactive: -0.139; TEAD-luciferase reporter activity (compound concentration: 2 uM): inactive: -0.738; TEAD-luciferase reporter activity (compound concentration: 10 uM): inactive: 0.859
CN1CCC2(O)Oc3c(ccc4ccccc34)CC2C1 (centres undefined)
  TEAD-luciferase reporter activity (compound concentration: 200 nM): inactive: -1.97; TEAD-luciferase reporter activity (compound concentration: 2 uM): inactive: 0.675; TEAD-luciferase reporter activity (compound concentration: 10 uM): inactive: 0.359
